Test: Determination of MCFA in endometrial tissue (GC/MS)
Details: n = 5
[1] = Lesions (ectopic endometrial tissue)

Row | Structure (SMILES) | Concentrations of MCFA (Controls (eutopic endometrium)) [µM] | Concentrations of MCFA [1] [µM]
1 | CCCCCCCCCC(=O)O [Decanoic acid, reference compound] | 0.3185 | 0.5103
2 | CCCCCCCCCCCCCC(=O)O [Myristic Acid] | 6.784 | 6.596
